Laboratory results from article PMC6280682, “The Micronemal Plasmodium Proteins P36 and P52 Act in Concert to Establish the Replication-Permissive Compartment Within Infected Hepatocytes” (Frontiers in Cellular and Infection Microbiology, 2018).
Results are given in words; binding and its absence hold for the method and conditions named. In cells and extracts the contact can be indirect. Some results given as binding are weak or reduced against the parent protein; the word gives no strength. Tags and fused reporters may be left off the sequences shown.

What was measured:
[1] = molecular target: T1, Plasmodium yoelii P36 with a C-terminal mCherry tag (P36^mCherry) (Plasmodium yoelii) (UniProt Q7RPW4); experiment: co-IP; P36^mCherry immunoprecipitated from salivary gland sporozoite lysate (10 mM Tris-HCl pH 7.5, 150 mM NaCl, 0.5 mM EDTA, 0.5% NP-40) with RFP-Trap_MA beads, 4°C 1 h, four washes; western blot with α-mCherry and α-P52; wild-type lysate and unconjugated beads as controls
T1 sequence: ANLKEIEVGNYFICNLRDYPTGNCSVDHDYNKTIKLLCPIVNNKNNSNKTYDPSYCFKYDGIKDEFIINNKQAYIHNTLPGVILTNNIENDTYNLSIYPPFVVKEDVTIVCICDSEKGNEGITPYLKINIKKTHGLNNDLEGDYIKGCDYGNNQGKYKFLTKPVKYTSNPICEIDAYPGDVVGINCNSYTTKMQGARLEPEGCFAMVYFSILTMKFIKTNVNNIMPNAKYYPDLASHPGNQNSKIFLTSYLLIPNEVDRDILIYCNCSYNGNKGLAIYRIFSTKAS

[2] = molecular target: T1, Plasmodium yoelii P36 with a C-terminal mCherry tag (P36^mCherry) (Plasmodium yoelii); experiment: cross-linking; P36^mCherry sporozoite lysate (PBS-based buffers) cross-linked with 2.5 mM BS3 on ice for 2 h; SDS-PAGE and western blot with α-mCherry and α-P52

B1: Plasmodium yoelii P52 (natural protein)
chain: NVPNPNTTIGHFEICEVNTSSGDAEECVLENEFGKMFLFICDIDYNEMSKNIVLPSECAKKTYIDHVNPNGTSPEVNTYDIFPDLIAANESQFRDKFYFYGTPYSSKDIDFICLCFSETKPDIKHVMKMSFKKMTKKIKGCDFGDNIPTKKDLTNGKALYENSSCHIYAYPGDVIGINCYKKDINNIYNNNLELQPNNCFHNVYYEDDILLSSKNLIPNSRVIPDPSNDVKLSKMHSYMSYIILPDEINENVKISCACKRDEYIGTMFLYVNTSKNILTSPDNNVEEIAPLNDHYISIGDMWDMGLHENPEQIQGIISNHANKKYYEHMKIYKSNKMDSSDDDESNETESSENESNERTHNGNRANKDANNSEKMTGNRRKKNNSINNTNYYSNYEDDNGINISTHDKYYEDQHFGNNGPLRKKRTFWQNMFGTS
notes: P52, Plasmodium yoelii 17X, 6-cys s48/45 family, two s48/45 domains; predicted MW 53 kDa; also called Py P52; source: endogenous, P. yoelii P36^mCherry salivary gland sporozoite lysate
In the case of B1, the binding [1] is reported as “binds” and the binding [2] is reported as “binds”.
